Measured values published in PMC6133967.
Results are given in words; binding and its absence hold for the method and conditions named. In cells and extracts the contact can be indirect. Some entries that bind do so weakly or less than the wild type.

Sequences of proteins named here, by UniProt entry; tags and fusion partners are left off.
UniProt P11802: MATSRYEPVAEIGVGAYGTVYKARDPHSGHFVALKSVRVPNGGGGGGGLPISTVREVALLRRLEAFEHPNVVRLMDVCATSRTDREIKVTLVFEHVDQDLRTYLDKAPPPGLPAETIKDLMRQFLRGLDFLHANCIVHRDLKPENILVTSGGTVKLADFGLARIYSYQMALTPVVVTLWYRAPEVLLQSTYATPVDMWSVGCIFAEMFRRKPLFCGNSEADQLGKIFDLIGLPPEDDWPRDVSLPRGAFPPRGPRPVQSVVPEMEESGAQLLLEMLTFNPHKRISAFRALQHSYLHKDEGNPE
UniProt Q00987: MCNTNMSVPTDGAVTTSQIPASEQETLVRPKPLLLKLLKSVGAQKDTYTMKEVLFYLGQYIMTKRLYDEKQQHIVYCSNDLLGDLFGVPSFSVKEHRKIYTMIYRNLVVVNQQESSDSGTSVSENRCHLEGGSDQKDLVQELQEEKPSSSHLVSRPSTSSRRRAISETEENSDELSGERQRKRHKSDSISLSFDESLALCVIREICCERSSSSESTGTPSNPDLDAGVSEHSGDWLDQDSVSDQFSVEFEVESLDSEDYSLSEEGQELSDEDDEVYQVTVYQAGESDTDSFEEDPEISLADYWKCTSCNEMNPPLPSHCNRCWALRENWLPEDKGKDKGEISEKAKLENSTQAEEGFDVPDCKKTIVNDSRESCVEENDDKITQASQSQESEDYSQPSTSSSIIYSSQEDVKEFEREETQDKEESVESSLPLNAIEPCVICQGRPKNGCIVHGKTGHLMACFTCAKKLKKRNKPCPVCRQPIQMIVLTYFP

How the values were obtained:
[1] = molecular target: Cyclin-dependent kinase 4 (human (endogenous in SJSA)) (UniProt P11802); test: co-IP; endogenous proteins, lysates of SJSA cells (treated with 20 µM MG-132 for 5 h, or with Nutlin and/or PD0332991); Co-IP buffer 50 mM Tris-HCl pH 7.5, 300 mM NaCl, 1% NP-40, 0.1% sodium deoxycholate; 3 µg antibody overnight, Protein G Sepharose; immunoblot
[2] = molecular target: Cyclin D1 (human (endogenous in SJSA)) (UniProt P24385); test: as above
[3] = molecular target: Cyclin D1 (plasmid-based overexpression in H1299 cells) (UniProt P24385); test: co-IP; exogenous Co-IP, lysates of H1299 cells transfected with plasmids 24 h before harvest; same Co-IP buffer and procedure, one well per antibody; immunoblot

| binding [1] | binding [2] | binding [3] | Substance |
| --- | --- | --- | --- |
| binds | – | – | Cyclin D1 (from UniProt P24385 1-295) |
| binds | binds | – | MDM2 (from UniProt Q00987 1-491) |
| – | binds | – | p53 (from UniProt P04637 1-393) |
| – | – | binds | p53 (plasmid-based overexpression in H1299 cells) (from UniProt P04637 1-393) |
